Patent publication EP1334195B1, “ANALOGUES, AGONISTS, ANTAGONISTS AND VARIANTS OF THE OXIDOREDUCTASE ENZYME ACTIVITY OF THE MACROPHAGE-MIGRATION INHIBITION FACTOR (MIF) AS IMMUNOMODULATORS, MEDICAMENTS, DIAGNOSTICS AND SCREENING AGENTS IN INFLAMMATORY AND IMMUNE DISEASES” (Fraunhofer-Gesellschaft zur Förderung der angewandten …, priority 2000, dated 2007)
Part of at least one peptide drawing is inferred or uncertain, most often the ends. No end group written: not given here.

Test system: Jab1
Assay: Competition of MIF-Jab1 binding in TNT reticulocyte lysate system (anti-MIF IP / anti-biotin Western blot)
Settings: Figure 1; result in words

FGGSSEPSALSSLHSI [Ser57/Ser60-MIF-Pep-161]
Kompetition mit Wildtyp-MIF für die Bindung mit Biotin markiertem Jab1: Gleiches gilt
